PubChem BioAssay AID1259308 | NCATS, 2017
Aim: 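Knock-downs that increase output of a recombinant reporter protein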 (primary screen). Cell system: human HEK293 embryonic kidney cells stably expressing firefly luciferase (HEK-CMV-Luc2-Hygro). Reagents: single siRNA against human genes, 0.8 pmol siRNA per well. Timing: 72 h. Measured: 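Luciferase light (ONE-Glo) measured on one replicate plate set and viability (CellTiter-Glo) on the other, scaled to a negative control siRNA, with robust z-scores and luciferase per cell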. Reading the numbers: total luciferase, z-score and total luciferase, % of control: higher = more reporter protein produced; luciferase per cell, z-score: higher = more reporter output per viable cell; viable cells, % of control: higher = more viable cells. Hit rule: 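An siRNA counts as active if its total luciferase robust z-score exceeds 3; genes with two or more such siRNAs out of three were retested with fresh siRNAs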. Calls: active = raised luciferase; inactive = no rise.
In all, the deposit lists about 59,000 reagents; this is a part drawn at random. In the full data, about 1,510 (2.6%) got an active call. 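Calls use total luciferase alone and ignore viability, so some active siRNAs may act by altering cell number.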 Unmarked entries are inactive. The numbers tell different reagents against one gene apart.

gene knocked down,reagent no.,"total luciferase, z-score","total luciferase, % of control","luciferase per cell, z-score","viable cells, % of control"
CXCL16,1,1.42,110,1.41,85
CXCL16,2,-0.517,71.6,-0.167,83.6
CXCL16,3,-0.312,75.7,-0.137,87.7
ATP6V0E2,1,4.47 (active),171,2.82,90.8
ATP6V0E2,2,-0.822,65.5,-0.504,83.6
ATP6V0E2,3,-2.44,33.3,-2.12,65.1
ADRB2,1,0.207,86,-0.244,102
ADRB2,2,2.29,128,1.85,87.4
ADRB2,3,-0.216,77.6,-0.736,105
MAP7D1,1,3.26 (active),147,2.93,75.8
MAP7D1,2,0.974,101,0.229,107
MAP7D1,3,0.3,87.9,0.721,81.2
CHRAC1,1,1.03,102,0.659,96.1
CHRAC1,2,-2.26,36.9,-3.16,94.6
CHRAC1,3,2.47,131,2.47,76.4
PDE6H,1,-1.33,55.3,-1.08,82.1
PDE6H,2,0.739,96.6,-0.0303,109
PDE6H,3,1.89,119,1.95,79.9
ZNF229,1,-1.08,60.4,-1.16,91.5
ZNF229,2,-0.211,77.7,0.784,70.6
ZNF229,3,-0.123,79.4,0.0314,88
DDX25,1,-0.312,75.7,0.0652,83.1
DDX25,2,0.141,84.7,0.744,77.8
DDX25,3,0.375,89.3,0.205,94.6

Part of the list above, set out differently:
ADRB2 #1 | total luciferase, z-score: 0.207; total luciferase, % of control: 86; luciferase per cell, z-score: -0.244; viable cells, % of control: 102
ADRB2 #2 | total luciferase, z-score: 2.29; total luciferase, % of control: 128; luciferase per cell, z-score: 1.85; viable cells, % of control: 87.4
ADRB2 #3 | total luciferase, z-score: -0.216; total luciferase, % of control: 77.6; luciferase per cell, z-score: -0.736; viable cells, % of control: 105
